The target in assay [1] is T1, Fibroblast growth factor 12 (FGF12) (human (endogenous in iPS-cardiomyocytes)) (UniProt P61328).
T1 sequence: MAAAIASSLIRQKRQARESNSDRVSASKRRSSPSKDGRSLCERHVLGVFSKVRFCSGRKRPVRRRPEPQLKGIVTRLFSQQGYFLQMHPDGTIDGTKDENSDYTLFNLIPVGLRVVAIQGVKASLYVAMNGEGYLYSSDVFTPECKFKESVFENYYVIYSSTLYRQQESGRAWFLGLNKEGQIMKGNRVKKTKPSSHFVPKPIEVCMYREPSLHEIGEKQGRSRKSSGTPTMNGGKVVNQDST
The experiment in a line: co-IP.

The chains behind the UniProt entries cited, without tags or fusion partners.
UniProt P12883: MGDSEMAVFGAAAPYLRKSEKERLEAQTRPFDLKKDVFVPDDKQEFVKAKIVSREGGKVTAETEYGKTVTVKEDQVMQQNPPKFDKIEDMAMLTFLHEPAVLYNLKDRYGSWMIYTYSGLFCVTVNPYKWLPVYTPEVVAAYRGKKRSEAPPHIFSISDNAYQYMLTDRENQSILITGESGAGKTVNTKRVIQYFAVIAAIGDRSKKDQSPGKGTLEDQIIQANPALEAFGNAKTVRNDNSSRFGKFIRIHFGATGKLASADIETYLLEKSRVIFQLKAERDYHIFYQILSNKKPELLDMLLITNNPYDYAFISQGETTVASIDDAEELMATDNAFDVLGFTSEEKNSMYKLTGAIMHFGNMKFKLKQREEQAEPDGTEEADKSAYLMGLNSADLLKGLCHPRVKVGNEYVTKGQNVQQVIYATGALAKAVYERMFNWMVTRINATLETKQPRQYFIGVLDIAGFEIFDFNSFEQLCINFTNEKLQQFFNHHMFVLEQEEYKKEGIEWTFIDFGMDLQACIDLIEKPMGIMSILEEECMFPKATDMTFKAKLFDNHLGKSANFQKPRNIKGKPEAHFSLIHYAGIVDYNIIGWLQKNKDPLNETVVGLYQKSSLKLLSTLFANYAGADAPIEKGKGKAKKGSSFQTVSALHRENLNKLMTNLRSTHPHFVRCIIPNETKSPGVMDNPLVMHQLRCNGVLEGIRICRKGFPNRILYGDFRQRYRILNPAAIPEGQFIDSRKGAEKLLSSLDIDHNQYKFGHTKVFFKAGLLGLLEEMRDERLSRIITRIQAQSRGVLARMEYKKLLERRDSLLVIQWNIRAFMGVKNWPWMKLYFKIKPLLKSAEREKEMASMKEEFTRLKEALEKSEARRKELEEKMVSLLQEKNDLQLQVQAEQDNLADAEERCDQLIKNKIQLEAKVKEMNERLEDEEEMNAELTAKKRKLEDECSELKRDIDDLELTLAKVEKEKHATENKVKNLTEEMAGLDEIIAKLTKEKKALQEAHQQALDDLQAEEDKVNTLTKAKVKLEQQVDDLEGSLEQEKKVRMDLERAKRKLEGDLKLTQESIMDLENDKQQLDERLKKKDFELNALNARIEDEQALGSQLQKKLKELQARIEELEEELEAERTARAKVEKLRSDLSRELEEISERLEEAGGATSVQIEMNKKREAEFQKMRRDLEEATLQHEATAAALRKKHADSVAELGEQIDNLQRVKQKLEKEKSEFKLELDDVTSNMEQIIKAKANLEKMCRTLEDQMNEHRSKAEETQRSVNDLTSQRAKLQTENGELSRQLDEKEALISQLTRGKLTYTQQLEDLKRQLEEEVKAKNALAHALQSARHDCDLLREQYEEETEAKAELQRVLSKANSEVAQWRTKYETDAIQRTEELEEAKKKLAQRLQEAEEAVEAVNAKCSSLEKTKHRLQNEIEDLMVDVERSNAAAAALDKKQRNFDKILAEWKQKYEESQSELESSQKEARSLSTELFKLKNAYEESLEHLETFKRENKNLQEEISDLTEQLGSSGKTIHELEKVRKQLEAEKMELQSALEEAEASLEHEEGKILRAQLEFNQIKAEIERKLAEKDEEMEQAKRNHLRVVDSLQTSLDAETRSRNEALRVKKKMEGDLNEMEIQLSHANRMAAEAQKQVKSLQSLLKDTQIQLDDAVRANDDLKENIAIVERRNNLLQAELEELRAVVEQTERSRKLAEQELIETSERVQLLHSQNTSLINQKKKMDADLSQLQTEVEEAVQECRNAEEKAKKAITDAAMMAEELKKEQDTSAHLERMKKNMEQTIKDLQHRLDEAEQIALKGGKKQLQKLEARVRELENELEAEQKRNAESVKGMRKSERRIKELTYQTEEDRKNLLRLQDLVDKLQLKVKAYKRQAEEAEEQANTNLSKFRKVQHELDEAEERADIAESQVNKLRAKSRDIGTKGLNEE
UniProt P43694: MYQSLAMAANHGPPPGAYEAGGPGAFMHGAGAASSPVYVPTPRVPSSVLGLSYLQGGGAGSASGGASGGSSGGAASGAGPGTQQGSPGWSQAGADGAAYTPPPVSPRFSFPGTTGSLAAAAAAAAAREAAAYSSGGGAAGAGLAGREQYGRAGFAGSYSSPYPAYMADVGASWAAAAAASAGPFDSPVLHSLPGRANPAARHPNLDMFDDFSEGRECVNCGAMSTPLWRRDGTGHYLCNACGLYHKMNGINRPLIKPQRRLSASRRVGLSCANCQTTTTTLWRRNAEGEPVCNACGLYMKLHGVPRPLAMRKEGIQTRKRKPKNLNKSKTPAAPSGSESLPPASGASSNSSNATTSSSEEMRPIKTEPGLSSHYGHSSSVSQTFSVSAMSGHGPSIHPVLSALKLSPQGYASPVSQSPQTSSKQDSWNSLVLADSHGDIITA

The target in assay [2] is T2, Fibroblast growth factor 12 (FGF12) (UniProt P61328).
T2 sequence: T1 sequence
The experiment in a line: co-IP.

These are yes or no findings as the source states them, for the method shown. Binding seen in cells or lysates may run through a third protein. Some binding calls cover weakened binding; strength is not graded here.

Consider “MYH7 (thick myofilament marker) (from UniProt P12883 1-1935)”, for which the binding entry in assay [1] was “binds”.

Regarding “GATA binding protein 4 (GATA4) (from UniProt P43694 1-442)”, the binding result in assay [2] was “binds”.
